± gives the standard deviation. The list shows a part of the results. Many of these values have a large error.
These sequences were tested on EfPiwi piRISC loaded with L1MC piRNA (26 nt) (assay: pre-steady-state target cleavage rate (min^-1); guide: L1MC piRNA 5'p-UAACUAAAUACUAUGCAAGCUGUAGG; MIWI and MILI are mouse PIWI proteins and EfPiwi is from a freshwater sponge; tags in brackets are library labels; higher = faster piRNA-guided slicing of the target). Settings: auxiliary factor: 500 nM Ephydatia muelleri Gtsf1.
Procedure, shortened: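 The pre-steady-state cleavage rate was obtained by Cleave-'n-Seq with a burst-and-steady-state fit. A transcribed, DNA-blocked target RNA library (0.1 nM) was mixed with 1 nM active affinity-purified piRISC carrying one synthetic guide, with or without 500 nM GTSF1 partner protein, in HEPES–potassium acetate buffer at 33 °C for 0–8 or 0–960 min. Uncleaved targets were sequenced and normalised to depth and to weakly complementary targets, with three trials pooled and k3 capped at 0.0001 min^-1.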

Sequence	pre-steady-state target cleavage rate
UCCUGGAUCAGCUUGCAAGUAUUUAGUUA	0.00101 ± 0.0037
UCCUGGAACAGCUUGCUUAGUAAUUAGUUA	0.00639 ± 0.0027
UCCUCCUACAGCUUGCAUAGUAUUUAAGUUA	0.00943 ± 0.0038
UCCUGGAUGAGCUUCGAUAGUAUUUAGAAA	0.00142 ± 0.0066
UCCUGCUACUCGUUGCAUAGUAUUUAGUAA	0.00326 ± 0.0038
UCCUGGAUGUGCUAGCAUAGUAUUUAGUAA	0.00107 ± 0.0056
UCCUCCUACUGCUUGCAUAGAAUUUAGUUA	0.00761 ± 0.0021
UCCUCCUAAGCUUGCAUAGUAUUUAGUUA	0.0155 ± 0.0059
UCCUGGAUGUGCUUGCCUAGUAUUUAGUUA	0.00934 ± 0.0027
UCCUGCUAGAGCUUGCAUAGUAUUUACUUA	0.000736 ± 0.0053
UCCUGGAUGUCGAACCAUACUAAUUAGUUA	< 0.0001
UCCUGGAUGAGCUUCGCAUAGUAUUUAGUUA	0.0219 ± 0.0059
UCCUGGAACAGCCUGCAUAGUAUUUAGUUA	0.0144 ± 0.0045
UCCUGGAUCAGGUUGCAUAGUAUAUAGUUA	0.00644 ± 0.0033
UCCUGGUACAGCUUGCUUAGUAUAUAGUUA	0.0737 ± 0.025
UCCUGGAUCAGCUUGCAUAGUUAUUUAGUUA	0.00183 ± 0.005

Sequence	pre-steady-state target cleavage rate
UCCUGCUUCAGGUUGCAUAGUAUUUAGUUA	0.0664 ± 0.015
UCCUGGAACAGCUUGCUUAGUAUAUAGUUA	0.0104 ± 0.0048
UCCUGGAUCAGCUUGCAUAGUAUUUGAGUUA	0.00696 ± 0.0028
UCCUGGAUGUGCUUGGAUAGUAUAUAGUUA	0.000414 ± 0.01
UCCUCCUUGUGCUUGCAUAGUAUUUAGUAA	0.00675 ± 0.0029
UCCUGGAUGUCGAUGCAAAGUAUUUACUUA	0.000129 ± 0.018
UCCUGGAUGAGCUUGCAAAGUUUUUAGUUA	0.000504 ± 0.016
UCCUGGAUGUCGAACGUUUGUAUUUAGUAA	0.000124 ± 0.022
UCCUGGAUCAGCUUGCUUAGUAUUAAGUUA	0.00376 ± 0.0025
UCCUCCUACAGCUUGCAUAGUAUUUAGUUG [g2:g26:cont:t1G]	0.00723 ± 0.0029
UCCUCCAACAGGUUGCAUAGUAUUUAGUUA	0.0491 ± 0.011
UCCUGGUAAGCUUGCAUAGUAUUUAGUUA	0.0168 ± 0.0044
UCCUCCUACAGGAUGCAUAGUAUUUAGUUA	0.0467 ± 0.011
UCCUGGAUGUGCUUGCAUAGUACUUAGUUA	0.00522 ± 0.0031
UCCUCCUACAGCUUGCAUCGUAUUUAGUUA	0.0492 ± 0.014
UCCUCCUACAGCUUGGAUAGUAUUUUGUUA	0.00565 ± 0.0022

A second format for some results above.
Sequence,pre-steady-state target cleavage rate
UCCUGGAUGUCGAACCAUACUAAUUAGUUA,< 0.0001
UCCUGGAUGAGCUUCGCAUAGUAUUUAGUUA,0.0219 ± 0.0059
UCCUGGAACAGCCUGCAUAGUAUUUAGUUA,0.0144 ± 0.0045

Same assay, conditions: auxiliary factor: none (no Gtsf1)

Sequence	pre-steady-state target cleavage rate
UCCUGGAUGAGCUUGCAUAGUAUUCAGUUA	0.000386 ± 0.026
UCCUGCUACUCGUUGCAUAGUAUUUAGUUA	0.000702 ± 0.013
UCCUGCUACAGCUUGCAUACUAUUAAGUUA	0.000126 ± 0.03
UCCUGGAUGAGCUUGCAUAGUAUUUAGUUU [g2:g21:cont:t1U]	0.00181 ± 0.0086
UCCUGCUACAGGUUGCAUAGUAUUUAGUAA	0.000643 ± 0.0099
UCCUGGUACAGCUUGCAAUCUAUUUAGUUA	0.000288 ± 0.028
UCCUGGAACAGCUUGCAUAGUAUCUUAGUUA	0.00177 ± 0.006
UCCUGGAUGUCGAACGUAAGAUUUAGUUA	< 0.0001

From the supplement of paper PMC10338343
